Data from article PMC4330359.
Construct, isoform or probe ends are uncertain for at least one entry. Weaker means in comparison with the reference protein, sequence or condition of that experiment. For part of these data: At least one verdict rests on a figure or table, not on a statement of the authors.

Protein sequences, listed by entry. Tags and fused reporters are not part of them. Residues count along the entry.
UniProt P63015, 4-130 G36R: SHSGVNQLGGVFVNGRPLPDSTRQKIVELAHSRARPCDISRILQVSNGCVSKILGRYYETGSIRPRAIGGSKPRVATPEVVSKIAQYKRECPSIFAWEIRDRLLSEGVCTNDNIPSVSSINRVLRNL
UniProt P63015, 4-130 R44Q: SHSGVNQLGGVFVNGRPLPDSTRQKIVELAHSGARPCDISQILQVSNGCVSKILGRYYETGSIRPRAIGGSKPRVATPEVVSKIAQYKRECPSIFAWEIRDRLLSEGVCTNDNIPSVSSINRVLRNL

Columns and labels:
Assay in all cases: EMSA
[1] = test system: Sox2-HMG long (109 aa) + Pax9-PRD; conditions: cooperativity abolished; EMSA: 10 mM Tris-HCl pH 8.0, 0.1 mg/ml BSA, 50 uM ZnCl2, 100 mM KCl, 10% glycerol, 0.1% IGEPAL CA-630, 2 mM 2-mercaptoethanol, 1-2 h, gel at 4 C, 100-300 nM DNA; recombinant protein; label: 5'-FAM or 5'-Cy5
[2] = test system: Sox2-HMG long (109 aa) + Pax2-PRD; conditions: cooperativity abolished; EMSA: 10 mM Tris-HCl pH 8.0, 0.1 mg/ml BSA, 50 uM ZnCl2, 100 mM KCl, 10% glycerol, 0.1% IGEPAL CA-630, 2 mM 2-mercaptoethanol, 1-2 h, gel at 4 C, 100-300 nM DNA; recombinant protein; label: 5'-FAM or 5'-Cy5
[3] = test system: Sox2-HMG long (109 aa) + Pax3-PRD; conditions: cooperativity abolished; EMSA: 10 mM Tris-HCl pH 8.0, 0.1 mg/ml BSA, 50 uM ZnCl2, 100 mM KCl, 10% glycerol, 0.1% IGEPAL CA-630, 2 mM 2-mercaptoethanol, 1-2 h, gel at 4 C, 100-300 nM DNA; recombinant protein; label: 5'-FAM or 5'-Cy5
[4] = test system: Sox2-HMG long (109 aa) + Pax8-PRD; conditions: cooperativity abolished; EMSA: 10 mM Tris-HCl pH 8.0, 0.1 mg/ml BSA, 50 uM ZnCl2, 100 mM KCl, 10% glycerol, 0.1% IGEPAL CA-630, 2 mM 2-mercaptoethanol, 1-2 h, gel at 4 C, 100-300 nM DNA; recombinant protein; label: 5'-FAM or 5'-Cy5
Pax6-PRD G36R = Pax6-PRD G36R (UniProt P63015); conditions: markedly reduced affinity; EMSA: 10 mM Tris-HCl pH 8.0, 0.1 mg/ml BSA, 50 uM ZnCl2, 100 mM KCl, 10% glycerol, 0.1% IGEPAL CA-630, 2 mM 2-mercaptoethanol, 1-2 h, gel at 4 C, 100-300 nM DNA; recombinant protein; label: 5'-FAM or 5'-Cy5
Pax6-PRD R44Q = Pax6-PRD R44Q (UniProt P63015); conditions: markedly reduced affinity; EMSA: 10 mM Tris-HCl pH 8.0, 0.1 mg/ml BSA, 50 uM ZnCl2, 100 mM KCl, 10% glycerol, 0.1% IGEPAL CA-630, 2 mM 2-mercaptoethanol, 1-2 h, gel at 4 C, 100-300 nM DNA; recombinant protein; label: 5'-FAM or 5'-Cy5

Measured: binding result

AAATATTCATTGTTGATGTTCACGCATCATGGATCC (double strand) [DC5con]
binds more weakly: [1] | [2] | [3] | [4]

AAGCATTTTCACGCATGAGTGCACAG (double strand) [Pax6_xtal]
binds more weakly: Pax6-PRD G36R | Pax6-PRD R44Q
